Assay results taken from the supplement of paper PMC12067093, “Discovery and optimisation of a covalent ligand for TRIM25 and its application to targeted protein ubiquitination” (Chemical Science, 2025).
This is one part of the list.

The chains behind the UniProt entries cited, without tags or fusion partners. Where a name states a change or a piece, a line headed by the entry shows the natural chain unless it says otherwise.
UniProt Q96Q15: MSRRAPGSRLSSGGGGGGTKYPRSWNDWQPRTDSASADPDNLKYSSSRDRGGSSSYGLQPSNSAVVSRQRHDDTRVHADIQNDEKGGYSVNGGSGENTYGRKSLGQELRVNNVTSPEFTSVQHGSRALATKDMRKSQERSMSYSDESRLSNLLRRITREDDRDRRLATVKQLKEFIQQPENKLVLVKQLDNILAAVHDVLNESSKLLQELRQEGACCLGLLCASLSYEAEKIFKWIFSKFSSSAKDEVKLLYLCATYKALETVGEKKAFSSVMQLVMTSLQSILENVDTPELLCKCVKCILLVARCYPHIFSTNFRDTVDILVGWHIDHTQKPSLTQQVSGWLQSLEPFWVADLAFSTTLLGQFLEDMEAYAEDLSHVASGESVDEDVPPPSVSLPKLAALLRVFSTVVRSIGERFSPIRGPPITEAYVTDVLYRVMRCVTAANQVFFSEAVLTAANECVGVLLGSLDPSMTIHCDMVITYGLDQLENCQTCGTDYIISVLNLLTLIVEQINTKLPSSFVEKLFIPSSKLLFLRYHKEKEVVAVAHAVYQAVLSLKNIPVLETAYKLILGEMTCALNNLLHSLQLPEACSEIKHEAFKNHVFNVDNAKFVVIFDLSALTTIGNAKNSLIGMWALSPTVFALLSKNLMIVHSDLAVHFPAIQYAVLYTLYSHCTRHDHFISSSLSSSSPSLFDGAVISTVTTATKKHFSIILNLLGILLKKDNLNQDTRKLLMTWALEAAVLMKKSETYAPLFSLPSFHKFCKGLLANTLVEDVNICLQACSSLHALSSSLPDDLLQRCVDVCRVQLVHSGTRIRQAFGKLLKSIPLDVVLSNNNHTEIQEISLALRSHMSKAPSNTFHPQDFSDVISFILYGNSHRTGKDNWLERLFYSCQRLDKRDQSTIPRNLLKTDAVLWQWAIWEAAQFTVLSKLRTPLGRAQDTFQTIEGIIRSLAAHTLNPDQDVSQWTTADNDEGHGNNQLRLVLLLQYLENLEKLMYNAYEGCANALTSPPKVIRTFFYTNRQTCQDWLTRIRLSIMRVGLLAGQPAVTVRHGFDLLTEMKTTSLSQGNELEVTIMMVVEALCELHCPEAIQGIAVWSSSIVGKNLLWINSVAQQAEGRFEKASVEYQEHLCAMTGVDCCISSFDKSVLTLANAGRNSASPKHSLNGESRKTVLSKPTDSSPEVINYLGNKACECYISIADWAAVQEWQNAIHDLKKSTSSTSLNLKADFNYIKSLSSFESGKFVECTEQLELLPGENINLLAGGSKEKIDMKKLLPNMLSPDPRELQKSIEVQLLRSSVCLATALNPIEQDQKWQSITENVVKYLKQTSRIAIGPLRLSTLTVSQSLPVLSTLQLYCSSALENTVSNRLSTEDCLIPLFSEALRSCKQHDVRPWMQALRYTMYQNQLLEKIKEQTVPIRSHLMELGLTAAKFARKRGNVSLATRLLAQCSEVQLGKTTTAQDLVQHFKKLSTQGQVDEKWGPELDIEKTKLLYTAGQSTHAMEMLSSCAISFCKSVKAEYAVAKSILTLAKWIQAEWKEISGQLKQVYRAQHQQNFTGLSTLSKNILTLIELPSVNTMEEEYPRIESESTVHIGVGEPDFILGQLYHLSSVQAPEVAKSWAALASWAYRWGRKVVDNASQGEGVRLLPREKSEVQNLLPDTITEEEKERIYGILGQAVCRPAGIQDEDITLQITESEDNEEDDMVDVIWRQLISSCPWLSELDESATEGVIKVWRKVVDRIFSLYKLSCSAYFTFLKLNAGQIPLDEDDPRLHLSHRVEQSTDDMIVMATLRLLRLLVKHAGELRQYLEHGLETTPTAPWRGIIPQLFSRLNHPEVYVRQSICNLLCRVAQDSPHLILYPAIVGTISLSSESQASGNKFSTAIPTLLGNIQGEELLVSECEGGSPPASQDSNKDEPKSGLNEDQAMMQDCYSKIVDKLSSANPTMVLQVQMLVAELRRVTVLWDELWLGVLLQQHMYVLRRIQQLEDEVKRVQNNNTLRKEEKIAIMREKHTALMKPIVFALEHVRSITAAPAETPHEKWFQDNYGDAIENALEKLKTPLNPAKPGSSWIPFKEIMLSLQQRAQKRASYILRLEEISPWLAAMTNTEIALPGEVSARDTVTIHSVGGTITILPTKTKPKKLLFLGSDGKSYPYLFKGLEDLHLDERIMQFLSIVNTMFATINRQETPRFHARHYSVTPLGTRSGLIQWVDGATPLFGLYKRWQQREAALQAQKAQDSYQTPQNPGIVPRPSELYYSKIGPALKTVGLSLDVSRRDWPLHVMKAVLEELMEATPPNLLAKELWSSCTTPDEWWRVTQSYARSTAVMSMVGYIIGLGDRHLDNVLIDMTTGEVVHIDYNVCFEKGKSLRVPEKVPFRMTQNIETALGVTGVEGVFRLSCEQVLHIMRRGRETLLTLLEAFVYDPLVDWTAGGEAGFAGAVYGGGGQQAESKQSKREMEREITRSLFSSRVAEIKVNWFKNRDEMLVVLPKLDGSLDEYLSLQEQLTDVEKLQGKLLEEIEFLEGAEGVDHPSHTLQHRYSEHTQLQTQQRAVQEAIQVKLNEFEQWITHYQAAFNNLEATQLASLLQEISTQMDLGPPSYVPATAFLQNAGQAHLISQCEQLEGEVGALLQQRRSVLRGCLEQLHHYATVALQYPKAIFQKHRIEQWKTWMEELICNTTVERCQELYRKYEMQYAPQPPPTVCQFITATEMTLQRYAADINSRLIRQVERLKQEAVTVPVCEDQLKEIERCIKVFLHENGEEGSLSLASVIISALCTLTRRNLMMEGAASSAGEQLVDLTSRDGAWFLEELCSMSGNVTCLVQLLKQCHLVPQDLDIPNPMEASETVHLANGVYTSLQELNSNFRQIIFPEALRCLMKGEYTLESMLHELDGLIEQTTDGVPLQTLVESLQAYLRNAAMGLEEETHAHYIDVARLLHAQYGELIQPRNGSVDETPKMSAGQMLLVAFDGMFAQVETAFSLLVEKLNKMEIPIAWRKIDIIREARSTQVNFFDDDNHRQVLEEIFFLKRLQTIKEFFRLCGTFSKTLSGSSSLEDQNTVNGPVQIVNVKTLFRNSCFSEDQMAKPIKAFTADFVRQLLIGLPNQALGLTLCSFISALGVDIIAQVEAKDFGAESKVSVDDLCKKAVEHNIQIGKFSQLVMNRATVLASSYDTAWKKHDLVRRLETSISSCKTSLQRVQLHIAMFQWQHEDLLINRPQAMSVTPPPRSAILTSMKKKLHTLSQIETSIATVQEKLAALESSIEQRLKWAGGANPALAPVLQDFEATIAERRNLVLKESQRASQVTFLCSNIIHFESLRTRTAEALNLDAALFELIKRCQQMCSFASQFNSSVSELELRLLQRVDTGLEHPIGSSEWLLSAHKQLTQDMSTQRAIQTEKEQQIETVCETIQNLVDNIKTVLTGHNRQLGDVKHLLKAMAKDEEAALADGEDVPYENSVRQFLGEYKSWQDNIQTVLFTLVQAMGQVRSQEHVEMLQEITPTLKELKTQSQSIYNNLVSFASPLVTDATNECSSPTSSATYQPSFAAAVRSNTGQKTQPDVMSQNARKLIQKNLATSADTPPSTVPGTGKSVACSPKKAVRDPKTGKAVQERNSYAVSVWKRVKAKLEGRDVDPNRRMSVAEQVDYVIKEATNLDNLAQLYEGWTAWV
UniProt Q14683: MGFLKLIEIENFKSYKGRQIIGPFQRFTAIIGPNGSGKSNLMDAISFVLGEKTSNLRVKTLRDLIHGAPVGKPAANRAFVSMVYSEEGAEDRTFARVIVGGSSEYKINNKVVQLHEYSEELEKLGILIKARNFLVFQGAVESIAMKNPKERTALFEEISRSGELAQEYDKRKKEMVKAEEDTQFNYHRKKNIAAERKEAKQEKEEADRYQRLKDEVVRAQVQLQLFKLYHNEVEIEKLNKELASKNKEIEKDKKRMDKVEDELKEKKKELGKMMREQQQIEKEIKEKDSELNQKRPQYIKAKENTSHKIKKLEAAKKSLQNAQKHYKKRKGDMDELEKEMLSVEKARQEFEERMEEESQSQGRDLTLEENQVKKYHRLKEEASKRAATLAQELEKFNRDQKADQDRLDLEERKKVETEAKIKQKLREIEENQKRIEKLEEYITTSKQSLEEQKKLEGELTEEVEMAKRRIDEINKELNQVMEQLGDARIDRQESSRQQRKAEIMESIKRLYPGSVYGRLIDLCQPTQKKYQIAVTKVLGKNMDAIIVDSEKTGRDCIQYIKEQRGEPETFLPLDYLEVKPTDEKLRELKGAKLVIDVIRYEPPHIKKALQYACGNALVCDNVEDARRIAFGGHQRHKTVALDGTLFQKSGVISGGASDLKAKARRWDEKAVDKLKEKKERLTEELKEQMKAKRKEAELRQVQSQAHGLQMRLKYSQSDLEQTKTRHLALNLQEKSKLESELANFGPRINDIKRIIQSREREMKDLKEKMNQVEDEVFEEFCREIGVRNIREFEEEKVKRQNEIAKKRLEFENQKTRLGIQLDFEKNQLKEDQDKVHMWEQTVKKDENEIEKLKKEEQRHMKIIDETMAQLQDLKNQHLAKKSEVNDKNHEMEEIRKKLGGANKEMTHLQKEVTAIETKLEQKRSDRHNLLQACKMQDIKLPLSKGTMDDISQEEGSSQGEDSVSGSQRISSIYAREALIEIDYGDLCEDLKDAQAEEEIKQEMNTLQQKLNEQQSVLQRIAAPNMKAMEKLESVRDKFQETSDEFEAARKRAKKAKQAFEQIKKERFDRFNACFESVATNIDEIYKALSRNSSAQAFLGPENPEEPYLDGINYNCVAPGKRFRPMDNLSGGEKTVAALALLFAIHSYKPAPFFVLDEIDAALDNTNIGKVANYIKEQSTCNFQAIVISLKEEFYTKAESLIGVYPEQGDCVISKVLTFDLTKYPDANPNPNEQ
UniProt Q9BWU0: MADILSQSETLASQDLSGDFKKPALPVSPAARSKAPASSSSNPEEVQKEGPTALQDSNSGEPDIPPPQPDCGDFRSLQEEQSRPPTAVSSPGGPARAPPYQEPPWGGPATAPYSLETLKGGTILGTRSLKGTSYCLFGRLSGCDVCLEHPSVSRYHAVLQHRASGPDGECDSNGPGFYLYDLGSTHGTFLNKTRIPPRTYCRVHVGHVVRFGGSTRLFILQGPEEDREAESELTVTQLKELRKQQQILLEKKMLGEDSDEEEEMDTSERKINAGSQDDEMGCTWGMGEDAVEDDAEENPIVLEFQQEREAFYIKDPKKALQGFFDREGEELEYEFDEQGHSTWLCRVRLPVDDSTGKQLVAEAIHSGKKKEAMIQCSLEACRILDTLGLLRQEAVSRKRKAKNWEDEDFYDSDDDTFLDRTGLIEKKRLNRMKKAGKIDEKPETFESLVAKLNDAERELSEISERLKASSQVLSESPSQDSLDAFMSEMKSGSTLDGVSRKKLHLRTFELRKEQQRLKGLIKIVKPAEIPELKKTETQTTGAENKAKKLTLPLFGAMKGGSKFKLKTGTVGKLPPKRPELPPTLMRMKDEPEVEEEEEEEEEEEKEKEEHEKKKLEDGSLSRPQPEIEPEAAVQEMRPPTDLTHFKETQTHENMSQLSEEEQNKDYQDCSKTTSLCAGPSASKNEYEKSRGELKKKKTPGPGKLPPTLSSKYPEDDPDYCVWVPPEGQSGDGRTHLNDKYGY
UniProt Q5K4L6: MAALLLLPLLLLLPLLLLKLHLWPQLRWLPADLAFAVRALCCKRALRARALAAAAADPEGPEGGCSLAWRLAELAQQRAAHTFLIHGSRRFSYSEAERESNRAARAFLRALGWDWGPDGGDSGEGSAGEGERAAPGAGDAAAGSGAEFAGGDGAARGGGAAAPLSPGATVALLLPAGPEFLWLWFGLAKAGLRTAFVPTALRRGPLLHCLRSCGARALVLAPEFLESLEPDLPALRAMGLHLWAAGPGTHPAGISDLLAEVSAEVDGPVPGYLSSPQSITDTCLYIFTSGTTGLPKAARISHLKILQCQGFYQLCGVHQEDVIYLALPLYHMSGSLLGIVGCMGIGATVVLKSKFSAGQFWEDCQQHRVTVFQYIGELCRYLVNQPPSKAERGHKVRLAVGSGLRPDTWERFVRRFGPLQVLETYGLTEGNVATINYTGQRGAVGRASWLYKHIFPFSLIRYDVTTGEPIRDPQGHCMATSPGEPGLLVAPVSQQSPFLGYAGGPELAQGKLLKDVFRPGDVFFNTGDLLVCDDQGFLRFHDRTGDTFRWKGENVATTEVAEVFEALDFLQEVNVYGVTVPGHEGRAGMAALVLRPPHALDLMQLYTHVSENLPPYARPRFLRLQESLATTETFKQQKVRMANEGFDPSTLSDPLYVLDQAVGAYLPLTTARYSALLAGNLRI

Compound: CC1Cc2ccccc2N1C(=O)C1CCCN(C1)C(=O)CCl (mixture of isomers) [TRIM25 ligand 11 (diastereomer mixture)]
Experiment: probe-labelled cysteine peptide fold change vs DMSO (competition) (log2 fold change); higher = less target engagement (more negative = stronger competition)
Settings: THP-1, incubation time: 4 h
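Also: competitive chemoproteomic profiling in live THP-1 cells with an iodoacetamide desthiobiotin (IA-DTB) probe, comparing probe-labelled peptide intensities in compound-treated cells against DMSO-treated controls.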

Target | probe-labelled cysteine peptide fold change (10 µM) | probe-labelled cysteine peptide fold change (50 µM)
SMG1_Q96Q15_2396_LSCEQVLHIMR (UniProt Q96Q15) | 0.169 | 0.331
SMARCC2_Q8TAQ2_80_CFLDFK (UniProt Q8TAQ2) | -0.00468 | 0.128
SMC6_Q96SB8_385_DDEQLCK (UniProt Q96SB8) | -0.0608 | -0.0749
SMC1A_Q14683_613_ALQYACGNALVCDNVEDARR (UniProt Q14683) | 0.255 | 0.0466
SMARCD2_Q92925_298_CTLLLMLDHQPPQYK (UniProt Q92925) | -0.0298 | -0.00447
SMURF2_Q9HAU4_393_QELSQQQPQAGHCR (UniProt Q9HAU4) | -0.228 | -0.215
SLC5A6_Q9Y289_577_LLSLLPLSCQK (UniProt Q9Y289) | 0.0138 | 0.0259
SNAP47_Q5SQN1_369_SCSVWHAASGLMGR (UniProt Q5SQN1) | -0.0781 | -0.228
SLC4A1AP_Q9BWU0_435_EAMIQCSLEACR (UniProt Q9BWU0) | 0.114 | 0.0996
SMAD5_Q99717_110_WPDLQSHHELKPLDICEFPFGSK (UniProt Q99717) | -0.0706 | -0.0467
SLC27A3_Q5K4L6_256_GPLLHCLR (UniProt Q5K4L6) | 0.138 | 0.0913
SMPD4_Q9NXE4_221_TSDCAYFILVDR (UniProt Q9NXE4) | 0.14 | 0.266
SNRNP200_O75643_1359_TICAEFAILR (UniProt O75643) | 0.00479 | 0.0853
SLFN11_Q7Z7L1_322_VNPFCCAVFSEAPNSWIVEDK (UniProt Q7Z7L1) | 0.661 | 0.447
SMN2_Q16637_123_ETCVVVYTGYGNR (UniProt Q16637) | 0.21 | 0.222
SNRNP200_O75643_516_TNVALMCMLR (UniProt O75643) | 0.0159 | 0.0911
SMARCC1_Q92922_108_CFMDFK (UniProt Q92922) | -0.0752 | -0.064
SLK_Q9H2G2_86_VIDTKSEEELEDYMVEIDILASCDHPNIVK (UniProt Q9H2G2) | -0.198 | -0.0733
SMC1A_Q14683_619_ALQYACGNALVCDNVEDARR (UniProt Q14683) | 0.139 | -0.0848

Target | probe-labelled cysteine peptide fold change (10 µM) | probe-labelled cysteine peptide fold change (50 µM)
SMCHD1_A6NHR9_1751_IAHLAQIEDDRAAMVISWHLASDMDCVVTLTTDAAR (UniProt A6NHR9) | 0.0608 | 0.115
SMU1_Q2TAY7_383_TTECSNTFK (UniProt Q2TAY7) | 0.0113 | 0.106
SMC4_Q9NTJ3_323_NHVCQYYIYELQK (UniProt Q9NTJ3) | 0.0622 | -0.0168
SMARCB1_Q12824_167_TFPLCFDDHDPAVIHENASQPEVLVPIRLDMEIDGQKLR (UniProt Q12824) | -0.0714 | 0.0299
SMARCB1_Q12824_350_NTGDADQWCPLLETLTDAEMEK (UniProt Q12824) | -0.0899 | -0.155
SMG8_Q8ND04_755_QASTVEYLPGMLHSNCPK (UniProt Q8ND04) | -0.0995 | -0.0245
SMARCAD1_Q9H4L7_462_CEDISNK (UniProt Q9H4L7) | -0.00579 | -0.0217
SLC7A7_Q9UM01_349_EGHLPDAICMIHVER (UniProt Q9UM01) | 0.0357 | 0.0274
SMC5_Q8IY18_417_ALCEGEIIDK (UniProt Q8IY18) | -0.0881 | 0.0517
SMG1_Q96Q15_1245_FVECTEQLELLPGENINLLAGGSK (UniProt Q96Q15) | 0.178 | -0.153
SLC27A3_Q5K4L6_411_FSAGQFWEDCQQHR (UniProt Q5K4L6) | 0.138 | 0.297
SLC27A4_Q6P1M0_560_AGMAAVASPTGNCDLER (UniProt Q6P1M0) | 0.142 | -0.114
SMG7_Q92540_537_NLSNNCDTGEKPVVTFK (UniProt Q92540) | -0.036 | -0.226
SLC44A1_Q8WWI5_117_SVALCVAACPR (UniProt Q8WWI5) | -0.0403 | 0.0124
SLK_Q9H2G2_204_DSFIGTPYWMAPEVVMCETSK (UniProt Q9H2G2) | -0.142 | -0.0938
SMG1_Q96Q15_1715_QLISSCPWLSELDESATEGVIK (UniProt Q96Q15) | -0.174 | 0.0278
SLC4A1AP_Q9BWU0_399_EGEELEYEFDEQGHSTWLCR (UniProt Q9BWU0) | -0.0527 | 0.0332
SMC1A_Q14683_1180_EQSTCNFQAIVISLK (UniProt Q14683) | -0.0336 | 0.0396
SLC30A1_Q9Y6M5_447_QCCGTLPQAPSGK (UniProt Q9Y6M5) | -0.168 | -0.232
